Results are given in words; binding and its absence hold for the method and conditions named. In cells and extracts the contact can be indirect. A result given as binding can be weak or reduced; the word gives no strength. Tags and fused reporters may be left off the sequences shown.
The substances below were run against T1, uL5c-HA (chloroplast-encoded ribosomal protein Rpl5 with C-terminal triple-HA tag) (Chlamydomonas reinhardtii) (UniProt Q8HTL1) (assay: co-IP).
T1 sequence: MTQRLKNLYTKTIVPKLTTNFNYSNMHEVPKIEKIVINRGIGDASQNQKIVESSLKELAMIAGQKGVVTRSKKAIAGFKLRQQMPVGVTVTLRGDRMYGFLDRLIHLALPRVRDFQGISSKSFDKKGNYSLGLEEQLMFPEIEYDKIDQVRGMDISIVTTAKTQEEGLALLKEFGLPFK
With cpSRP54 the binding was “binds”.
trigger factor (TIG1) was tested, and the binding was “binds”.
In the case of uL1c, the binding is reported as “binds”.
In the case of uL37, the binding is reported as “no binding”.
For uS11c, the binding was “binds”.
